# Data reported in US20240091360A1 (LENTIGEN TECHNOLOGY, published 2024).
# By UniProt entry, the sequences of proteins in these tests, tags left out. Where a name states a change or a piece, a line headed by the entry shows the natural chain unless it says otherwise. Chains listed by the source or under a name are the forms on record and can include a tag or linker.
# MSLN-His (R&D System) (Q13421, form named): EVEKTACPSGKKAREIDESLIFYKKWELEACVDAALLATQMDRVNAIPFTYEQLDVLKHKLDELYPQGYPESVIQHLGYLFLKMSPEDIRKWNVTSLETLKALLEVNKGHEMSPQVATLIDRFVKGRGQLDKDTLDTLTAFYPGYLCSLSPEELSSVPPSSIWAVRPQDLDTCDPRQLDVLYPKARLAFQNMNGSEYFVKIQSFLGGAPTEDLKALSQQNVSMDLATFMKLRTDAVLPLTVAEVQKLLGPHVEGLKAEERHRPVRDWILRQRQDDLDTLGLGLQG
# These are yes or no findings as the source states them, for the method shown. Some binding calls cover weakened binding; strength is not graded here.
# B1: CAR D0233 MSLN M1-4S ROR1 scFv9 IgG4 CD8 BBz (other)
# chain: EVQLVQSGGGLVQPGGSLRLSCAASGFTFDDYAMHWVRQAPGKGLEWVSGISWNSGSIGYADSVKGRFTISRDNAKNSLYLQMNSLRAEDTALYYCAKDLSSVAGPFNYWGQGTLVTVSSGGGGSGGGGSGGGGSSSELTQDPAVSVALGQTVRITCQGDSLRSYYASWYQQKPGQAPVLVIYGKNNRPSGIPDRFSGSSSGNTASLTITGAQAEDEADYYCNSRDSSGNHLVFGGGTQLTVLGGGGGSGGGGSGGGGSGGGGSGGGGSQAAQVQLQQSGAEVKKPGSSVKVSCKASGGTFSSYAISWVRQAPGQGLEWMGWINPNSGGTNYAQRFQGRVTMTRDTSISTAYMELSRLRSDDTAVYYCASYNDAFDIWGQGTLVTVSSGGGGSGGGGSGGGGSNFMLTQPHSVSESPGKTVTISCTRSSGSIASNYVQWYQQRPGSAPTIVIYEDDQRPSGVPDRFSGSIDTSSNSASLTISGLQSEDEADYYCQSYEPGNGVFGGGTKVTVLAAAESKYGPPCPPCPIYIWAPLAGTCGVLLLSLVITLYCKRGRKKLLYIFKQPFMRPVQTTQEEDGCSCRFPEEEEGGCELRVKFSRSADAPAYQQGQNQLYNELNLGRREEYDVLDKRRGRDPEMGGKPRRKNPQEGLYNELQKDKMAEAYSEIGMKGERRRGKGHDGLYQGLSTATKDTYDALHMQALPPR
# notes: Tandem CAR on transduced primary human T cells; also called MSLN-ROR1 scFv9-IgG4 hinge-CD8TM-41BB-CD3ζ; tandem CAR D0233
# Biological target: MSLN-His (R&D System) (UniProt Q13421)
# Assay: flow cytometry; transduced primary human T cells stained with MSLN-His, then anti-His APC
binder,measurement,value
B1,binding,binds
